# Measurements from PubChem BioAssay AID504834 (National Center for Advancing Translational Sciences (NCATS), 2011).
# Hit rate of the full screen: of about 320,000 compounds, about 22,000 (6.9%) were called active. This list was built around the results that the source calls inconclusive (neither active nor inactive); the mix of calls is not that of the screen. Calls follow the shape of the dose curve; as a rule, active = well fitted inhibition curve with a large enough effect; inconclusive = small, poorly fitted or top-dose-only effect, or another doubt; inactive = no such curve, though single readings can be large or run the other way. Potencies of inconclusive entries are doubtful fits and often do not repeat.
# Assay: Primary qHTS for delayed death inhibitors of the malarial parasite plastid, 96 hour incubation
# Conditions: P. falciparum luciferase reporter growth; series mostly up to 28.7 µM
# Excerpt: The goal of this screen is to discover new antimalarial compounds that act by inhibiting the development of the apicoplast in the malarial parasite Plasmodium falciparum. The biochemical processes that make this organelle essential for erythrocytic stage parasites are not well understood. However, antibiotics such as azithromycin and tetracycline, which target the apicoplast translational machinery, have a potent antimalarial effect.
# We have developed a cell-based assay that measures parasite growth based on the expression of an integrated copy of a firefly luciferase reporter. To detect small molecules that cause this "delayed death" phenotype, erythrocytes infected with the luciferase-expressing parasites were incubated with compounds for either one or two generations, corresponding to 48 and 96 hours, respectively. Compounds that inhibit parasite growth in the second generation, but not the first, should be enriched in antimalarials that target the apicoplast. Growth inhibition is detected by a decrease in luciferase activity. […]
# Four microliters of infected erythrocytes (2% hematocrit, 0.05% parasitemia final concentration) in culture medium were dispensed and the plates incubated for 96 hours at 37 C in 5% CO2. Two microliters of luciferase detection reagent was added and luminescence was detected by a ViewLux (PerkinElmer) reader.
# Potency is read from the fitted curve at half-maximal effect.
row,SMILES,Potency
1,CC(c1ccccc1)N1C(=O)c2ccc(C(=O)Nc3ccccc3C(=O)O)cc2C1=O (configuration not stated),"inconclusive: 0.0033 µM [inhibitor, full curve, poor fit]"
2,CC(C)(C)CC(C)(C)c1ccc(OCC(=O)N/N=C/c2ccc(S(=O)(=O)O)o2)cc1,"inconclusive: 13.1 µM [inhibitor, single point]"
